Results on 1 sequence are retold here after paper PMC5996148.

Chains of the proteins cited; added tags and fusions are not shown. Lines headed by an entry give the natural chain unless they say otherwise; changes in a name come on top.
UniProt Q9Y450, whole entry: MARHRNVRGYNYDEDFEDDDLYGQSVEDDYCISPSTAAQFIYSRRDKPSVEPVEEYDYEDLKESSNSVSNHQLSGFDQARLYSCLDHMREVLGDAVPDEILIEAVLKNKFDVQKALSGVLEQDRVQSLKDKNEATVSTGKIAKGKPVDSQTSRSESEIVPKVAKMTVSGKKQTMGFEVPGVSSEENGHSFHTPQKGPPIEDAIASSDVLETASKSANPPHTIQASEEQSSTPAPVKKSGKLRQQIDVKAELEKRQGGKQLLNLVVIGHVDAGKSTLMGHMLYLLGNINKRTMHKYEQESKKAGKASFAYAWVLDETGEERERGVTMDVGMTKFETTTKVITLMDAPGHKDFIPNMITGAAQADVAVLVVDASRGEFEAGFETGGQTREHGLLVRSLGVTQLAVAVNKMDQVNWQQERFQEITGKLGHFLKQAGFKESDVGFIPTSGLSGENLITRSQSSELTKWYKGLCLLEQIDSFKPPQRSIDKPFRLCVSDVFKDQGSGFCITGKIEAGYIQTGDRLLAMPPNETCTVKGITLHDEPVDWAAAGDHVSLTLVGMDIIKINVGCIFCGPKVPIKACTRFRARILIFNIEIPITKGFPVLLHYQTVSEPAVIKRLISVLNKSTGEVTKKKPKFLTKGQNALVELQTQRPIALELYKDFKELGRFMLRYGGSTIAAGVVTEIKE
UniProt Q9Y3E1: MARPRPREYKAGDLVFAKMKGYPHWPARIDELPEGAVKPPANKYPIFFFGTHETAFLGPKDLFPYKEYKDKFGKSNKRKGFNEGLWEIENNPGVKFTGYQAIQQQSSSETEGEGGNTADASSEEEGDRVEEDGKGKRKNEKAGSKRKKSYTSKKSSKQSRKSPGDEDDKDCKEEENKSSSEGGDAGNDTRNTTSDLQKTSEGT

Several values for one entry are separate records, joined by “and”; a condition that tells them apart may be missing. Equal values may be shown once. This is one part of the list. For some of these results: Construct or isoform of the protein are uncertain.

Some test systems named below: HBG1 (human); HBZ (human); HCCS (human); HCG3 (human); HDHD3 (human); HEBP1 (human); HEL308 (human); HFE (human).
Holding throughout (experiment): protein microarray (ProtoArray v5.0), streptavidin-Alexa Fluor 647
Conditions in all cases: 3'-biotin; 20 mM Tris (pH 7.5), 5 mM MgCl2, 100 mM KCl, 0.1% Tween-20, A/T-rich and random oligonucleotide blockers; temperature not stated; high values mean tight binding

The target in a further assay is HBS1L (UniProt Q9Y450).
The next assay deals with HDGFRP3 (UniProt Q9Y3E1).

“GGTGACAGGGGTATGGGGAGGGG [G4-2 biotinylated (Ct1)]”: the binding signal in the assay with HBG1 (human) is -0.384 z-score and -0.373 z-score; with HBS1L, 5.01 z-score; with HBZ (human), -0.401 z-score; in the assay with HCCS (human), -0.366 z-score; in the assay on HCG3 (human), -0.389 z-score; in the assay with HDGFRP3 it was 4.76 z-score. The binding signal in the assay with HDHD3 (human) is -0.378 z-score; in the assay on HEBP1 (human) it was -0.378 z-score; in the assay on HEL308 (human), -0.382 z-score; in the assay with HFE (human), -0.384 z-score.
